Test results taken from article doi:10.1101/515924 (bioRxiv, 2019).
Results are given in words; binding and its absence hold for the method and conditions named. Some results given as binding are weak or reduced against the parent protein; the word gives no strength.

The chains behind the UniProt entries cited, without tags or fusion partners. Where a name states a change or a piece, a line headed by the entry shows the natural chain unless it says otherwise.
UniProt Q06675: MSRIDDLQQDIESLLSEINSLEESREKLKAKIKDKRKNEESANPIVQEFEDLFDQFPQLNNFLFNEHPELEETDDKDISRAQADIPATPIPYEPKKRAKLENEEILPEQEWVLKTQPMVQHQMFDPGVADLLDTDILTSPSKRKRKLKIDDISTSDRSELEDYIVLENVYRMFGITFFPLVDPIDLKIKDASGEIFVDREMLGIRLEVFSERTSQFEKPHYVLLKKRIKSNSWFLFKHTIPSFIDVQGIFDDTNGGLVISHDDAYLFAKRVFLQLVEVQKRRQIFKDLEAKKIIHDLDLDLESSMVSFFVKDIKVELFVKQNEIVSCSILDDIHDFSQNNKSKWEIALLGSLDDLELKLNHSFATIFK

Assays:
Sli15 (budding yeast) = molecular target: T1, Sli15 (budding yeast) (UniProt P38283); assay: two-hybrid
T1 sequence: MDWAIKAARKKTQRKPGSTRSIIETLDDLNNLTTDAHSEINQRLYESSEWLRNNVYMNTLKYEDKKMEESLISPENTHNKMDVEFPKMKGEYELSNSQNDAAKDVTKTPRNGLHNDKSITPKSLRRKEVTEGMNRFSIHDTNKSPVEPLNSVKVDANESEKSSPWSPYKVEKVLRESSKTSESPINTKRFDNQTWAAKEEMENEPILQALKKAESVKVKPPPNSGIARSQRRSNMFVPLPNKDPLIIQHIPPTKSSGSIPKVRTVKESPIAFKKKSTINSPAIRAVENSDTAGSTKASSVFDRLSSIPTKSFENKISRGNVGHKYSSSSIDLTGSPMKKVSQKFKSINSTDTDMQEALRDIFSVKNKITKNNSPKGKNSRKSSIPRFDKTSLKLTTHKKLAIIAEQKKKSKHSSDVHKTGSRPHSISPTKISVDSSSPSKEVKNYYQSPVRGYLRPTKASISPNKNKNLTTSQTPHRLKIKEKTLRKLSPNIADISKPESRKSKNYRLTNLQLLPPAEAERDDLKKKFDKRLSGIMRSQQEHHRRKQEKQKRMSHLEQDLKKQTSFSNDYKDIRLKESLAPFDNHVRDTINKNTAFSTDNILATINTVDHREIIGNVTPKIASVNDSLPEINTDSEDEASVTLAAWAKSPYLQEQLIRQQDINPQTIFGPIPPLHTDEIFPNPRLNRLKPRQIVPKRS

[1] = molecular target: T2, Sli15 lacking the Bir1-binding domain (N-terminus 1-228 aa) (budding yeast) (UniProt P38283); assay: two-hybrid
T2 sequence: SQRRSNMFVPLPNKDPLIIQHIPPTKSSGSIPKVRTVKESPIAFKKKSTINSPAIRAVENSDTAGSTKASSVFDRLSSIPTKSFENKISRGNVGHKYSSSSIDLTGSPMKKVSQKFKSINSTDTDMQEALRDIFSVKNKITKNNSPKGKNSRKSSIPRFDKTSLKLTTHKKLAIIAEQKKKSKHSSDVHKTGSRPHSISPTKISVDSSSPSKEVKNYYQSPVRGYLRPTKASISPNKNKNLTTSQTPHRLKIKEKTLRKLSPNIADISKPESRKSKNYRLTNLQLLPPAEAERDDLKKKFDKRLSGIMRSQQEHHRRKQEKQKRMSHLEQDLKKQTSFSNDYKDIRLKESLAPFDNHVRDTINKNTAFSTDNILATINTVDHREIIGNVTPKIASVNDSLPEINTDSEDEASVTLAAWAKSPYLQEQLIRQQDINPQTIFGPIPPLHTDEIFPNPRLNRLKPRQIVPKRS

binding (Sli15 (budding yeast)) | binding [1] | Substance
binds | – | Mcm21 lacking the flexible N-terminus (1-50 aa) (from UniProt Q06675 51-368) (domain or fragment)
binds | binds | Mcm21 (from UniProt Q06675 1-368)
